# Laboratory results from patent US7432342B2 (Sequenom, Inc., priority 2002, dated 2008).
# Experiment: general procedure: Fmoc SPOT synthesis; amino functionalized cellulose membrane
# Conditions: whole synthesis
substance,measurement,value
biotin-bA-bA-VQGNTDEAQEELAWKIAKMIVSDIMQQ,final HPLC purity,96%
